Laboratory results as given in article PMC5456407.
These are yes or no findings as the source states them, for the method shown. In cells and extracts the contact can be indirect. Here binding means that the protein was enriched with, or labelled near, the bait; the list need not be complete.

Sequences of proteins named here, by UniProt entry; tags and fusion partners are left off. A change or cut given only in a name is not applied to a line headed by its entry.
UniProt Q86UT6: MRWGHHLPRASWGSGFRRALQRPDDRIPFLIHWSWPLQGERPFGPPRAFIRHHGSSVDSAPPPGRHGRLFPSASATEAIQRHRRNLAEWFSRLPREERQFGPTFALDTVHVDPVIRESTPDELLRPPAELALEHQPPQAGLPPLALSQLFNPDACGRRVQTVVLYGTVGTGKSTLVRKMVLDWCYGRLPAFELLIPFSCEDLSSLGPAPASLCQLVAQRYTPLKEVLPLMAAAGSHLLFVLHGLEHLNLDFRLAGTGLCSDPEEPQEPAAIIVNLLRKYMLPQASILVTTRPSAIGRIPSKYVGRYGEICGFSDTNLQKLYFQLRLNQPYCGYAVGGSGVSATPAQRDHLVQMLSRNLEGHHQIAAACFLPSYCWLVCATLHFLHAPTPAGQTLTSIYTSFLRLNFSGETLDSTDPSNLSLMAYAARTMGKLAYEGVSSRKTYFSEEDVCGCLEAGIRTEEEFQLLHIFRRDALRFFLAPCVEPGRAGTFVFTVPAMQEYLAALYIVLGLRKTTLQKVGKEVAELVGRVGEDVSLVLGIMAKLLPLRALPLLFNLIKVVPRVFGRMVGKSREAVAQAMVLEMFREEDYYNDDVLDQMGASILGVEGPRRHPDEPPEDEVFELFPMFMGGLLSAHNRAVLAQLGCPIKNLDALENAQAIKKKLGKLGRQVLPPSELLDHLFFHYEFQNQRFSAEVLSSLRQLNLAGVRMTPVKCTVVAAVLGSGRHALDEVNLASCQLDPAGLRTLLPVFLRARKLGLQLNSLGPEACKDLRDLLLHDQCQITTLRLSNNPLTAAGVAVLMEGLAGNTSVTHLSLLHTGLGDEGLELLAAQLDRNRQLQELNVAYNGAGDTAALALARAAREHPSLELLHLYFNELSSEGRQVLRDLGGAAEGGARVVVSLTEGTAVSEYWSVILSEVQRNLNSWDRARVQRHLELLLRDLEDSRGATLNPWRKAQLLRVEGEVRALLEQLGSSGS
UniProt Q9UNN5: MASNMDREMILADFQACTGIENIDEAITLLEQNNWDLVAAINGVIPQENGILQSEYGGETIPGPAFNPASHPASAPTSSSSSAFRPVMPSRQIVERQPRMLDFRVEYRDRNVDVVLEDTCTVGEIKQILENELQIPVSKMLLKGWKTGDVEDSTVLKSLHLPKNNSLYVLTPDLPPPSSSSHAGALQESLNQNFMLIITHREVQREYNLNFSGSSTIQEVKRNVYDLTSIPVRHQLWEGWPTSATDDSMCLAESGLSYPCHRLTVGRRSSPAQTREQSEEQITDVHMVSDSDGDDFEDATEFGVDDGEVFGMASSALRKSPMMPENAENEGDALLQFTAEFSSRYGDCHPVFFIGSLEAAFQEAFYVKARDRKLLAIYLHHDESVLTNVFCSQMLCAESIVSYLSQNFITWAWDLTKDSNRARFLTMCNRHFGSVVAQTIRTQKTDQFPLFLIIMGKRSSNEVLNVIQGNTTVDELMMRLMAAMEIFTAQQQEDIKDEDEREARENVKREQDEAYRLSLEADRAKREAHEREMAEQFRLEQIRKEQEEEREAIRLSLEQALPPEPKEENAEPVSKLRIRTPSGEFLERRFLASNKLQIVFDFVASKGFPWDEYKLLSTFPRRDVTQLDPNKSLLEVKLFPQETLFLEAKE

Target: GST-tagged N-terminal domain (amino acids 1–225) of NLRX1 (UniProt Q86UT6)
Experiment: affinity purification with mass spectrometry; GST-NLRX1-N (aa 1-225) or empty GST vector expressed in HEK293T; lysates precipitated with GST beads, 4-15% Nu-PAGE, silver staining, bands exclusive to the GST-NLRX1-N lane identified by mass spectrometry

binding: binds
Substance: FAS-associated factor 1 (FAF1), endogenous in HEK293T cells (from UniProt Q9UNN5 1-650)
